Measured values published in the supplement of paper PMC9015667.
Where a name gives a salt, the structure may show the parent alone. The list shows a part of the results. Many values rest on one well or one pass, so single values are uncertain.

Key:
Test in all cases: reduction in cell viability relative to untreated/vehicle; higher = more growth inhibition
Conditions in all cases: 200 nM; 72 h
M229P = test system: M229P (parental melanoma line)
M229R = test system: M229R (matched melanoma line resistant to BRAF inhibitors)
M238P = test system: M238P (parental melanoma line)
M238R = test system: M238R (matched melanoma line resistant to BRAF inhibitors)
M249P = test system: M249P (parental melanoma line)
M249R = test system: M249R (matched melanoma line resistant to BRAF inhibitors)
UACC62P = test system: UACC62P (parental melanoma line)
UACC62R = test system: UACC62R (matched melanoma line resistant to BRAF inhibitors)

Measured: reduction in cell viability

C=C1/C(=C\C=C2/CCC[C@]3(C)[C@@H]([C@H](C)/C=C/C=C/C(O)(CC)CC)CC[C@@H]23)C[C@@H](O)C[C@@H]1O [Seocalcitol]
2.94%: UACC62P
< 0%: all other assays above

COc1cccc2c1C(=O)c1c(O)c3c(c(O)c1C2=O)C[C@@](O)(C(=O)CO)C[C@@H]3O[C@H]1C[C@H](N)[C@H](O[C@@H]2CCCCO2)[C@H](C)O1 [Pirarubicin]
< 0%: all assays above

C=C1/C(=C\C=C2/CCC[C@]3(C)[C@@H]([C@H](C)/C=C/[C@H](C)C(C)C)CC[C@@H]23)C[C@@H](O)C[C@@H]1O [1-alpha-Hydroxyergocalciferol]
16.6%: M249P
7.83%: UACC62P
< 0%: all other assays above

Nc1ccn([C@@H]2CO[C@H](CO)O2)c(=O)n1 [Troxacitabine]
8.8%: M249R
2.31%: UACC62P
< 0%: all other assays above

CN1CC[C@H](c2c(O)cc(O)c3c(=O)cc(-c4ccccc4Cl)oc23)[C@H](O)C1 [Flavopiridol]
72.7%: UACC62R
84.2%: UACC62P
61.7%: M229P
61%: M229R
67.6%: M238R
86%: M238P
83.3%: M249P
89.8%: M249R

Fc1ccc(C(c2ccc(F)cc2)N2CCN(C/C=C/c3ccccc3)CC2)cc1 [Flunarizine]
0.69%: UACC62P
< 0%: all other assays above

Cc1cc(N2CCOCC2)cc2[nH]c(-c3c(NC[C@@H](O)c4cccc(Cl)c4)cc[nH]c3=O)nc12
0.55%: M238R
2.75%: M229R
9.87%: UACC62P
7.08%: M238P
< 0%: all other assays above

Nc1ccn([C@@H]2CS[C@H](CO)O2)c(=O)n1 [Lamivudine]
< 0%: all assays above

CS(=O)(=O)c1ccc(C(=O)Nc2ccc(Cl)c(-c3ccccn3)c2)c(Cl)c1 [Vismodegib (GDC-0449)]
10.9%: UACC62P
< 0%: all other assays above

O=C(O)Cc1cccc(OCCCN(Cc2cccc(C(F)(F)F)c2Cl)CC(c2ccccc2)c2ccccc2)c1
< 0%: all assays above

CC(C(=O)O)c1ccc2c(c1)CC(=O)c1ccccc1S2 (stereo not drawn) [Zaltoprofen]
5.9%: M249R
< 0%: all other assays above

O=C(/C=C/c1ccc(/C=C/C(=O)Nc2ccc(C3=NCCN3)cc2)cc1)Nc1ccc(C2=NCCN2)cc1
< 0%: all assays above

CC1=C(CC(=O)O)c2cc(F)ccc2/C1=C\c1ccc([S+](C)[O-])cc1 (stereo not drawn) [Sulindac]
< 0%: all assays above

Cn1c(=O)n(-c2ccc(C(C)(C)C#N)cc2)c2c3cc(-c4cnc5ccccc5c4)ccc3ncc21
56.4%: UACC62P
38.5%: M229P
30.1%: M229R
30.9%: M238R
41.7%: M249R
45.8%: M238P
53%: M249P
47.6%: UACC62R

CCC1=C(C)CN(C(=O)NCCc2ccc(S(=O)(=O)NC(=O)N[C@H]3CC[C@H](C)CC3)cc2)C1=O [Glimepiride]
0.2%: M229R
< 0%: all other assays above

Cc1cccc(C)c1OCC(=O)N[C@@H](Cc1ccccc1)[C@@H](O)C[C@H](Cc1ccccc1)NC(=O)[C@H](C(C)C)N1CCCNC1=O [Lopinavir]
8.55%: UACC62P
< 0%: all other assays above

Cc1ccc(S(=O)(=O)NC(=O)NN2CC3CCCC3C2)cc1 (stereo not drawn) [Gliclazide]
2.6%: M229P
< 0%: all other assays above

C[N+](C)(C)CC(=O)O [Betaine hydrochloride]
0.67%: M249R
< 0%: all other assays above

CC(=O)O[C@]1(C(C)=O)CC[C@H]2[C@@H]3C[C@H](C)C4=CC(=O)CC[C@]4(C)[C@H]3CC[C@@]21C [Medroxyprogesterone acetate]
< 0%: all assays above

An excerpt from above in order of number of heavy atoms, smallest number first.
C=C1/C(=C\C=C2/CCC[C@]3(C)[C@@H]([C@H](C)/C=C/[C@H](C)C(C)C)CC[C@@H]23)C[C@@H](O)C[C@@H]1O [1-alpha-Hydroxyergocalciferol]
16.6%: M249P
7.83%: UACC62P
< 0%: all other assays above

Cn1c(=O)n(-c2ccc(C(C)(C)C#N)cc2)c2c3cc(-c4cnc5ccccc5c4)ccc3ncc21
56.4%: UACC62P
38.5%: M229P
30.1%: M229R
30.9%: M238R
41.7%: M249R
45.8%: M238P
53%: M249P
47.6%: UACC62R

O=C(/C=C/c1ccc(/C=C/C(=O)Nc2ccc(C3=NCCN3)cc2)cc1)Nc1ccc(C2=NCCN2)cc1
< 0%: all assays above

Remaining list, next part:

O=C(O)c1ccc(-n2nc(-c3ccccc3O)nc2-c2ccccc2O)cc1 [Deferasirox]
< 0%: all assays above

COc1cc2nc(N3CCCN(C)CC3)nc(NC3CCN(Cc4ccccc4)CC3)c2cc1OC
4.53%: M229R
6.98%: M229P
< 0%: all other assays above

COc1ccc(CC(=O)NC(/N=C(\NC#N)Nc2cccc3ncccc23)C(C)(C)C)cc1OC (stereo not drawn)
< 0%: all assays above

Nc1ccn([C@@H]2O[C@H](CO)[C@@H](O)C2(F)F)c(=O)n1 [Gemcitabine hydrochloride]
31.1%: M238R
12.5%: M229P
79.7%: UACC62R
55.8%: UACC62P
40%: M249R
30.6%: M229R
66%: M238P
29.5%: M249P

C=C1[C@H](CO)[C@@H](O)C[C@@H]1n1cnc2c(=O)[nH]c(N)nc21 [Entecavir]
< 0%: all assays above

CC(C)(C)C(=O)Oc1ccc(S(=O)(=O)Nc2ccccc2C(=O)NCC(=O)O)cc1 [Sivelestat]
0.07%: UACC62P
< 0%: all other assays above

CN1c2ccccc2C(=O)N2CCc3c([nH]c4ccccc34)C21 (stereo in doubt) [Evodiamine]
12.8%: M229P
36.1%: M238P
47.2%: UACC62R
6.22%: M249P
29.9%: M229R
15.1%: M249R
16.4%: UACC62P
3.9%: M238R

COc1ccccc1OCCNCC(O)COc1cccc2[nH]c3ccccc3c12 (stereo not drawn) [Carvedilol]
< 0%: all assays above

CN(C)c1ccc(O)c2c1C[C@H]1C[C@H]3[C@H](N(C)C)C(O)=C(C(N)=O)C(=O)[C@@]3(O)C(O)=C1C2=O [Minocycline]
2.67%: M249P
22.3%: UACC62P
< 0%: all other assays above

O=C(O)[C@H](CC(=O)N1C[C@H]2CCCC[C@H]2C1)Cc1ccccc1 [Mitiglinide Calcium Dihydrate]
4%: UACC62P
< 0%: all other assays above

OC(c1cc(C(F)(F)F)nc2c(C(F)(F)F)cccc12)C1CCCCN1 (stereo not drawn) [Mefloquine]
4.48%: M238P
< 0%: all other assays above

Cc1c(C)c2c(c(C)c1O)CCC(C)(COc1ccc(CC3SC(=O)NC3=O)cc1)O2 (stereo not drawn) [Troglitazone]
< 0%: all assays above

CNC(=O)c1ccc(-c2cnc3ncc(Cc4ccc5ncccc5c4)n3n2)cc1F
< 0%: all assays above

CC(C)n1nc(-c2ccc3oc(N)nc3c2)c2c(N)ncnc21
64.7%: M229R
71.2%: UACC62P
72.3%: M249P
64%: M238R
72.9%: M229P
64.9%: UACC62R
64.1%: M238P
65.5%: M249R

CC[C@H]1OC(=O)[C@H](C)[C@@H](O[C@H]2C[C@@](C)(OC)[C@@H](O)[C@H](C)O2)[C@H](C)[C@@H](O[C@@H]2O[C@H](C)C[C@H](N(C)C)[C@H]2O)[C@](C)(OC)C[C@@H](C)C(=O)[C@H](C)[C@@H](O)[C@]1(C)O [Clarithromycin]
3.11%: UACC62P
< 0%: all other assays above

N#CCNC(=O)c1ccc(-c2ccnc(Nc3ccc(N4CCOCC4)cc3)n2)cc1
< 0%: all assays above

COc1ccc2c3n(c(=NC(=O)c4cccnc4)nc2c1OC)CCN3
< 0%: all assays above

O=C(c1ccc(/C=C/c2n[nH]c3ccccc23)cc1)N1CCNCC1
< 0%: all assays above

NC(=O)c1ccc2[nH]ccc2c1
< 0%: all assays above

CN(C)CC(C)(C)CNc1nn2c(-c3ccccc3)nnc2cc1C1CCC1
4.53%: M249R
< 0%: all other assays above

O=c1[nH]nc(Sc2ncc([N+](=O)[O-])s2)n1-c1ccc2c(c1)OCCO2
< 0%: all assays above

Cc1cnc(Nc2ccc(F)cc2Cl)nc1-c1c[nH]c(C(=O)N[C@H](CO)c2cccc(Cl)c2)c1
26.2%: M238P
21.6%: M229P
16.9%: M249R
53.4%: UACC62P
15.6%: M249P
< 0%: M229R | M238R
17.1%: UACC62R
